Where a name gives a salt, the structure may show the parent alone. The list shows a part of the results. Most values come without repeats; read them as rough.
Assays:
Saos-2 = test: cell viability (CCK-8) relative to DMSO control (% of control); higher = less cytotoxic; conditions: 10 µM; 48 h
U2OS = test: as above; conditions: 10 µM; 48 h

SMILES | cell viability (Saos-2) | cell viability (U2OS)
COc1cc2c(cc1OC)C(=O)C(CC1CCN(Cc3ccccc3)CC1)C2 (stereo not given) [Donepezil·HCl] | 61.2 | 87.3
CC(=O)c1ccc(S(=O)(=O)NC(=O)NC2CCCCC2)cc1 [Acetohexamide] | 90.7 | 81.9
CC(C)[N+]1(C)[C@@H]2CC[C@H]1C[C@@H](OC(=O)C(CO)c1ccccc1)C2 (stereo not given in full) [Ipratropium . bromide] | 61.2 | 111
COC(=O)C1=C(C)NC(C)=C(C(=O)OCC(C)C)C1c1ccccc1[N+](=O)[O-] (stereo not given) [Nisoldipine] | 47.6 | 80.3
C[C@H](Cn1cnc2c(N)ncnc21)OCP(=O)(O)O [Tenofovir Hydrate] | 103 | 90.9

Source: the supplement of paper PMC9433722
